Data as given in PubChem BioAssay (EPA / NIEHS).
Several values for one entry are separate records, joined by “and”; a condition that tells them apart may be missing. Equal values may be shown once. Inconclusive results, whose numbers are uncertain, are shown with a selection of clear calls. For some of these results: Where the call is inconclusive, the potency comes from a doubtful curve fit. A structure can be active in one record and inactive in another. Activity calls are given as the source filed them. The calls were made as follows: active = hit-call score of the fitted dose curve at least 0.9, where 1 is the maximum; inconclusive = response in the unintended direction; inactive = score below 0.9.

Sequences of proteins named here, by UniProt entry; tags and fusion partners are left off. A change or cut given only in a name is not applied to a line headed by its entry.
UniProt Q9UNQ0: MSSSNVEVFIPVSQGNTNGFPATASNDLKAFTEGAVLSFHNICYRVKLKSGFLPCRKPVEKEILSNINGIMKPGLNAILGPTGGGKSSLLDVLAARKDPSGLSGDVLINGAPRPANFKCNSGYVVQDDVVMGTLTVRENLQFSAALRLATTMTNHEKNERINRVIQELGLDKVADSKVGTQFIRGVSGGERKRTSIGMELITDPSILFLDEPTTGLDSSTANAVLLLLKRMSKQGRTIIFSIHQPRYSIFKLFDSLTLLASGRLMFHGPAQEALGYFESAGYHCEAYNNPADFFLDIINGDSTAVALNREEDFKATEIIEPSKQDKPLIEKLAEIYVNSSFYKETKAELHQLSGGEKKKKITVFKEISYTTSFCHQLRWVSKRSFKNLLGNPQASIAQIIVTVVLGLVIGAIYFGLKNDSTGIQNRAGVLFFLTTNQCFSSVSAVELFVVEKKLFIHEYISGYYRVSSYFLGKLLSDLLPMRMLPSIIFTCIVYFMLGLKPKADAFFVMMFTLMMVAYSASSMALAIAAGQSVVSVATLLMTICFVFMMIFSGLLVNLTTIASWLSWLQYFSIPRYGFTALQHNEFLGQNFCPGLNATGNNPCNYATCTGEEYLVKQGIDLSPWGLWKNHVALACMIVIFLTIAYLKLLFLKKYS

Key:
[1] = Tanguay_ZF_120hpf_YSE_legacy: (Legacy) Oregon State University Tanguay Lab 120 Hour Post-fertilization zebrafish Assay for Yolk Sac Edema (AID 2283634);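 as to AC50: actives raise the incidence of yolk sac edema above the DMSO baseline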
Method in brief: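 Readout: presence or absence of yolk sac edema at 120 hpf, fitted upward against DMSO controls. Exposure ran statically from 6 hpf in dechorionated embryos kept at 28C.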

[2] = Tanguay_ZF_120hpf_EYE_legacy: (Legacy) Oregon State University Tanguay Lab 120 Hour Post-fertilization zebrafish Assay for Eye Malformation (AID 2283636)
Method in brief: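 Read-out is binary presence or absence of eye malformation, scored by brightfield microscopy at 120 hpf. Single larvae were exposed from 6 hpf in embryo medium containing 0.64% DMSO, with DMSO as baseline.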

[3] = Tanguay_ZF_120hpf_PIG_legacy: (Legacy) Oregon State University Tanguay Lab 120 Hour Post-fertilization zebrafish Assay for Pigmentation Malformation (AID 2283650)
Method in brief: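 Pronase dechorionation at 4 hpf; embryos plated at 6 hpf, one per well; static exposure, sealed and foil-covered, 28C, to 120 hpf; pigmentation read by brightfield, binary; DMSO 0.64% baseline, 5uM trimethyltin chloride positive control.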

[4] = Tanguay_ZF_120hpf_TRUN_legacy: (Legacy) Oregon State University Tanguay Lab 120 Hour Post-fertilization zebrafish Assay for Truncated Body (AID 2283655)
Method in brief: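 5D wild-type larvae; pronase dechorionation; static exposure 6→120 hpf, 28C; DMSO 0.64% final; 5uM trimethyltin chloride positive control. Readout: presence/absence of truncated body, analyzed relative to DMSO.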

[5] = Tanguay_ZF_120hpf_BRAI_legacy: (Legacy) Oregon State University Tanguay Lab 120 Hour Post-fertilization zebrafish Assay for Brain Malformation (AID 2283641)
Method in brief: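 Brain malformation in Tropical 5D zebrafish was recorded as a binary endpoint after static compound exposure from early development to 120 hpf at 28C. Activity was analysed against DMSO as negative control.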

[6] = Tanguay_ZF_120hpf_SOMI_legacy: (Legacy) Oregon State University Tanguay Lab 120 Hour Post-fertilization zebrafish Assay for Somite Malformation (AID 2283647)
Method in brief: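 5D WT zebrafish; chorion removed 4 hpf; 1 embryo/well from 6 hpf; static exposure to 120 hpf, 28C, 0.64% DMSO final. Endpoint: somite malformation, binary, brightfield. Mortality excluded.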

[7] = Tanguay_ZF_120hpf_SWIM_legacy: (Legacy) Oregon State University Tanguay Lab 120 Hour Post-fertilization zebrafish Assay for Swim Bladder Malformation (AID 2283654);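 also: swim bladder malformation in each larva scored yes or no under brightfield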
Method in brief: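 Embryos lacking chorions were exposed individually and statically to test chemical from 6 to 120 hpf at 28C, with 0.64% DMSO as vehicle. At 120 hpf, swim bladder malformation was recorded as present or absent by brightfield microscopy.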

[8] = read-out: Broad substrate specificity ATP-binding cassette transporter ABCG2 (Homo sapiens) (UniProt Q9UNQ0); test: CLD_ABCG2_6hr: CellzDirect (CLD) Gene Expression Assay for ABC Transporter (ABCG2) at 6 hours (AID 2283660)
Method in brief: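 Primary human hepatocytes dosed daily with chemicals at multiple concentrations (0.2% DMSO vehicle), harvested 6 h after dosing. ABCG2 mRNA induction read by quantitative nuclease protection assay (qNPA) chemiluminescence; gain of signal fitted against DMSO baseline.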

[9] = Tanguay_ZF_120hpf_OTIC_legacy: (Legacy) Oregon State University Tanguay Lab 120 Hour Post-fertilization zebrafish Assay for Otic Vesicle Malformation (AID 2283639)
Method in brief: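 Embryos from 5D wild-type adults exposed in plates; DMSO 0.64% v/v final. Sealed, light-protected, 28C, static to 120 hpf. Otic vesicle malformation recorded as binary endpoint; gain-of-signal fitted vs DMSO.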

[10] = Tanguay_ZF_120hpf_PE_legacy: (Legacy) Oregon State University Tanguay Lab 120 Hour Post-fertilization zebrafish Assay for Pericardial Edema (AID 2283640);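 also: potency for increased incidence of pericardial edema versus DMSO baseline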
Method in brief: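 Read-out is the presence or absence of pericardial edema at 120 hpf under brightfield, with gain of signal fitted against DMSO controls. Larvae (5D wild-type) were statically exposed at 28C with 0.64% final DMSO.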

[11] = Tanguay_ZF_120hpf_PFIN_legacy: (Legacy) Oregon State University Tanguay Lab 120 Hour Post-fertilization zebrafish Assay for Pectoral Fin Malformation (AID 2283648);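 also: each larva judged yes or no for fin defect by brightfield with dead larvae skipped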
Method in brief: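 5D WT zebrafish; pronase dechorionation 4 hpf; 1 embryo/well at 6 hpf; static exposure to 120 hpf, 28C, sealed, foil-covered; final DMSO 0.64% v/v; 5 uM trimethyltin chloride positive control; fin defect scored yes/no.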

[12] = Tanguay_ZF_120hpf_CFIN_legacy: (Legacy) Oregon State University Tanguay Lab 120 Hour Post-fertilization zebrafish Assay for Caudal Fin Malformation (AID 2283649)
Method in brief: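 Embryos were collected from Tropical 5D wild-type adults and dechorionated at 4 hpf. At 6 hpf each was exposed, one per well, at 0.64% DMSO and 28C. At 120 hpf fin morphology was scored; dead embryos were excluded.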

[13] = Tanguay_ZF_120hpf_CIRC_legacy: (Legacy) Oregon State University Tanguay Lab 120 Hour Post-fertilization zebrafish Assay for Circulatory Malformation (AID 2283651)
Method in brief: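 Read-out: presence or absence of circulatory malformation at 120 hpf, scored by brightfield microscopy, fitted in the gain-of-signal direction against DMSO baseline. Wild-type 5D larvae were exposed from 6 hpf after enzymatic chorion removal.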

[14] = Tanguay_ZF_120hpf_NC_legacy: (Legacy) Oregon State University Tanguay Lab 120 Hour Post-fertilization zebrafish Assay for Notochord and Tail Malformation (AID 2283656)
Method in brief: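 Dechorionated Tropical 5D wild-type zebrafish embryos, one per well from 6 hpf, statically exposed to 120 hpf at 28C in 0.64% DMSO final. Notochord distortion scored present/absent by brightfield; dead embryos excluded.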

[15] = Tanguay_ZF_120hpf_AXIS_legacy: (Legacy) Oregon State University Tanguay Lab 120 Hour Post-fertilization zebrafish Assay for Body Axis Malformation (AID 2283635);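 as to AC50: potency for an increased fraction of larvae scored with body axis malformation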
Method in brief: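 Static 6–120 hpf chemical exposure of dechorionated wild-type 5D zebrafish, one per well at 28C; morphology endpoint scored binary at 120 hpf relative to DMSO control.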

[16] = Tanguay_ZF_120hpf_SNOU_legacy: (Legacy) Oregon State University Tanguay Lab 120 Hour Post-fertilization zebrafish Assay for Snout Malformation (AID 2283637)
Method in brief: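 Snout malformation read as a yes/no call on brightfield images of 120 hpf larvae (Tropical 5D strain). Static exposure began at 6 hpf on dechorionated embryos in 0.64% DMSO, with gain of signal analysed versus DMSO controls.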

[17] = Tanguay_ZF_120hpf_JAW_legacy: (Legacy) Oregon State University Tanguay Lab 120 Hour Post-fertilization zebrafish Assay for Jaw Malformation (AID 2283638);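 also: active means more embryos with jaw malformation than DMSO controls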
Method in brief: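 Static waterborne exposure of dechorionated wild-type (Tropical 5D) zebrafish from 6 to 120 hpf at 28C, 0.64% DMSO vehicle; 5uM trimethyltin chloride served as positive control. Jaw morphology recorded as binary at 120 hpf.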

[18] = read-out: xenobiotic metabolism (CYP1A1), CYP1A1 (gene 1543); test: CLD_CYP1A1_6hr: CellzDirect (CLD) Gene Expression Assay for xenobiotic metabolism (CYP1A1) at 6 hours (AID 2283661);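 as to AC50: potency for transcript induction above DMSO vehicle baseline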
Method in brief: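 Primary human hepatocytes from two donors, compound versus 0.2% DMSO vehicle. CYP1A1 mRNA measured 6 h after dosing by quantitative nuclease protection assay with chemiluminescent read-out; induction fitted relative to DMSO, cytotoxicity flagged by microscopy.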

## CCOCN(C(=O)CCl)c1c(C)cccc1CC
[1]
  AC50: inconclusive: 1.31 µM
[2]
  AC50: inconclusive: 149 µM
[3]
  outcome: inactive
[4]
  AC50: active: 47.5 µM

## COc1cnc(OC)n2nc(NS(=O)(=O)c3c(OCC(F)F)cccc3C(F)(F)F)nc12
[1]
  AC50: inconclusive: 138 µM
[5]
  AC50: inconclusive: 43.4 µM
[6]
  outcome: inactive
[7]
  outcome: inactive
[4]
  outcome: inactive
[8]
  AC50: inconclusive: 20 µM

## O=S(=O)(O)C(F)(F)C(F)(F)C(F)(F)C(F)(F)F
[1]
  AC50: inconclusive: 212 µM
[9]
  AC50: inconclusive: 40.6 µM
[10]
  AC50: inconclusive: 135 µM
[5]
  AC50: inconclusive: 99.1 µM
[11]
  AC50: inconclusive: 118 µM
[12]
  AC50: inconclusive: 3.35 µM
[13]
  AC50: inconclusive: 212 µM

## Cc1cc(C2CC2)nc(Nc2ccccc2)n1
[1]
  AC50: inconclusive: 202 µM
[3]
  AC50: inconclusive: 202 µM
[14]
  AC50: inconclusive: 76.3 µM

## Cc1c(COC(=O)[C@@H]2[C@H](/C=C(\Cl)C(F)(F)F)C2(C)C)cccc1-c1ccccc1
[1]
  outcome: inactive

## CCOc1nc(F)cc2nc(S(=O)(=O)Nc3c(Cl)cccc3Cl)nn12
[1]
  AC50: inconclusive: 202 µM
[2]
  AC50: inconclusive: 35.6 µM

## CCC(C)(c1ccc(O)cc1)c1ccc(O)cc1
[1]
  AC50: active: 41 µM
[15]
  AC50: active: 46.9 µM
[2]
  AC50: active: 46.2 µM
[5]
  AC50: active: 50.6 µM
[6]
  AC50: active: 46.4 µM
[11]
  AC50: active: 44.7 µM
[3]
  AC50: active: 43.2 µM
[13]
  AC50: active: 42.7 µM
[7]
  AC50: active: 43.1 µM
[4]
  AC50: active: 46.6 µM
[14]
  AC50: inconclusive: 4.33 µM

## C[C@]12CCC(=O)C=C1CC[C@@H]1[C@@H]2CC[C@@]2(C)[C@H]1CC[C@]2(C)O
[15]
  AC50: inconclusive: 3.5 µM
[2]
  AC50: inconclusive: 184 µM
[16]
  AC50: inconclusive: 2.88 µM
[10]
  AC50: inconclusive: 3.11 µM
[5]
  outcome: inactive
[11]
  AC50: inconclusive: 185 µM
[4]
  outcome: inactive

## Oc1ccc2ccc3cccc4ccc1c2c34
[15]
  AC50: active: 13.1 µM
[2]
  AC50: active: 44.9 µM
[17]
  AC50: active: 46.8 µM
[9]
  AC50: active: 11.2 µM
[5]
  AC50: active: 46.1 µM
[6]
  AC50: active: 18.4 µM
[11]
  AC50: active: 12.2 µM
[12]
  AC50: active: 12.4 µM
[3]
  AC50: active: 44 µM
[7]
  AC50: active: 48.3 µM
[4]
  AC50: active: 46.5 µM
[14]
  AC50: active: 11 µM

## c1nc[nH]n1
[1]
  AC50: inconclusive: 10.5 µM
[15]
  AC50: inconclusive: 202 µM
[2]
  AC50: inconclusive: 1.14 µM
[17]
  AC50: inconclusive: 110 µM
[10]
  AC50: inconclusive: 202 µM
[6]
  outcome: inactive
[11]
  AC50: inconclusive: 141 µM
[7]
  AC50: inconclusive: 12 µM
[4]
  AC50: inconclusive: 202 µM

## CCc1cnc(C2=NC(C)(C(C)C)C(=O)N2)c(C(=O)O)c1 (stereo not drawn)
[1]
  outcome: inactive
[15]
  outcome: inactive
[11]
  outcome: inactive
[7]
  AC50: inconclusive: 2.64 µM
[8]
  AC50: inconclusive: 20 µM
[18]
  outcome: inactive

## COP(N)(=O)SC (stereo not drawn)
[15]
  AC50: inconclusive: 34.8 µM
[2]
  AC50: inconclusive: 201 µM
[17]
  AC50: inconclusive: 87.7 µM
[11]
  AC50: inconclusive: 26.3 µM
[12]
  outcome: inactive
[14]
  AC50: inconclusive: 61.3 µM

## CNC(=O)N(C)c1nnc(C(C)(C)C)s1
[1]
  AC50: inconclusive: 1.45 µM
[15]
  AC50: inconclusive: 1.71 µM
[16]
  outcome: inactive
[3]
  outcome: inactive
[13]
  outcome: inactive
[14]
  AC50: inconclusive: 37.1 µM
[8]
  AC50: inconclusive: 0.000448 µM
[18]
  AC50: active: 0.00579 µM

## C[C@]12C=CC3=C4CCC(=O)C=C4CC[C@H]3[C@@H]1CC[C@@H]2O
[1]
  AC50: active: 48.8 µM
[15]
  AC50: inconclusive: 104 µM
[2]
  AC50: active: 27.1 µM

## CCOP(=S)(Oc1ccc([N+](=O)[O-])cc1)c1ccccc1 (stereo not drawn)
[1]
  AC50: inconclusive: 1.71 µM
[16]
  outcome: inactive
[3]
  AC50: inconclusive: 78.7 µM

## CC(C)(OO)c1ccccc1
[15]
  outcome: inactive
[5]
  AC50: inconclusive: 190 µM
[3]
  outcome: inactive
[14]
  AC50: inconclusive: 26.3 µM

## ClC1=C(Cl)[C@]2(Cl)[C@@H]3[C@@H]4C[C@@H]([C@H]5O[C@@H]45)[C@@H]3[C@@]1(Cl)C2(Cl)Cl
[15]
  AC50: inconclusive: 191 µM
[17]
  AC50: inconclusive: 202 µM
[11]
  AC50: inconclusive: 12.3 µM
[3]
  AC50: inconclusive: 2.36 µM
[13]
  AC50: inconclusive: 81.5 µM
[4]
  AC50: inconclusive: 202 µM

## Cc1ccc(N)cc1
[15]
  AC50: inconclusive: 18.8 µM
[2]
  outcome: inactive
[5]
  outcome: inactive

## COc1cc(-c2ccc(N)c(OC)c2)ccc1N
[2]
  AC50: active: 57 µM
[16]
  AC50: active: 12 µM
[17]
  AC50: active: 47 µM
[9]
  AC50: inconclusive: 202 µM
[11]
  AC50: active: 87.5 µM
[13]
  AC50: inconclusive: 202 µM
[7]
  AC50: active: 95.5 µM and inconclusive: 138 µM

## CNC(=O)Oc1cccc2c1OC(C)(C)C2
[15]
  AC50: active: 6.79 µM
[12]
  outcome: inactive

## CC(C)(C)C(=O)C(Oc1ccc(Cl)cc1)n1cncn1 (stereo not drawn)
[15]
  AC50: active: 41.3 µM
[2]
  outcome: inactive
[9]
  AC50: inconclusive: 202 µM

## Oc1ccccc1-c1ccccc1
[15]
  AC50: inconclusive: 162 µM
[9]
  AC50: inconclusive: 17.3 µM
[7]
  outcome: inactive
[8]
  outcome: inactive
[18]
  AC50: inconclusive: 0.00498 µM
